In article PMC10163288:
Some of the results follow.

B1: il2ra_site2_2erj_sap_19_mot_d8db7d3d6fba55db16f38f4fb78be25a_0001_af2_000000045_0001_18_32_H_._HHH_b2_07174_af2_0001_0000100002_0000001_0_0001_af2pred_0001_1_af … (protein)
chain: SSSSDEEVREEVERLLEEAKKIEDPHKAASVVSEAAELAIKNDDEELLREISKISFELVGSSSSS
B2: il2ra_site2_2erj_normal_mot_6d5f7cbc25fed124e3eb7f952334b9cf_0001_af2_000000048_0001_1_13_H_._HHH_b1_02400_af2_0001_0000200016_0000001_0 (protein)
chain: SSSSDEKARELRKLFEELLELFKQGNLEEAEEILEEAIRRARELGDEEAVLQLELLLRMLSSSSS
B3: il2ra_site1_2b5i_sap_18_mot_HHH_b1_00835_000000236_0001_42_55_H_._HHH_b1_02049_af2_0001_0000300006_0000001_0_0001_af2pred_dldesign_0_af2pred (protein)
chain: SSSSSNPDARALVRELAEEARREEDPLLRRRLLKLARRVARKAEDPELLAEIERVEAELSSSSSS
B4: il2ra_site2_2erj_normal_mot_HHH_b2_08028_000000126_0001_18_34_H_._HHH_b1_05763_af2_0001_0000300014_0000001_1 (protein)
chain: SSSSDEEVEELLEEAKRLLEEGNPEEAHKVVSKAFELAYEEGNPELFSLVAELALEILRKSSSSS
B5: il2ra_site2_2erj_sap_24_mot_HHH_b2_07139_000000086_0001_40_57_H_._HHH_b2_03334_0001_0000200015_0000001_0_0001 (protein)
chain: SSSSDEEAEISLEAFREARRLFKNGNPEEAREILEEAIRELRELGNEELAETLENLLRFASSSSS
B6: il2ra_site1_1z92_sap_8_mot_add8a691351788dd45ba4deda1838316_0001_1_000000225_0001_37_51_H_._a445c54e3280ddb545be3b99cff61ffd_0001_1_af2_0001_0000300042_0000001_ … (protein)
chain: SSSSSEDKKEARELFQEANRLLRNGNEEEAEELLERALRLAEEAGSRSTARTIEDALKQLESSSS
B7: il2ra_site2_2erj_sap_21_mot_90f6a21de4ed711cb697bb9f61d9c40c_0001_af2_000000135_0001_36_50_H_._0a69b5c9b02373fb877a90f2b4b0d8e1_0001_1_0001_0000100002_0000001_0 … (protein)
chain: SSSSSDDLHEAYELAVRLLRLAANNDPEQFEEVSERLRELAERLQSDTLKEAIENLERFFSSSSS
B8: il2ra_site2_2erj_normal_mot_HHH_b1_05020_af2_000000060_0001_23_40_H_._HHH_b1_02182_af2_0001_0000100003_0000001_0 (protein)
chain: SSSSDEEEEIVRELVEEFNLSELAERFLERNARTLRESGVSEEEIERALEESARLLREAQSSSSS
B9: il2ra_site1_2b5i_sap_12_mot_HHH_b1_01346_af2_000000027_0001_1_20_H_._HHH_b2_00272_af2_0001_0000500041_0000001_0_0001_af2pred_dldesign_0_af2pred (protein)
chain: SSSSSDAWSRVDDLADKAFKVAKTDKEKAKEILEEALRLAEAAGDADLVKQTTDLLKYLESSSSS
B10: il2ra_site1_2b5i_normal_mot_HHH_b2_04910_000000118_0001_1_19_H_._HHH_b1_01775_0001_0000100002_0000001_0_af2pred_0001_af2pred_1 (protein)
chain: SSSSSDKEEAHELFHEANELDRQGDEEEARRVLEEALQLAEEGGNPSLFRLIEAALRLLGSSSSS
B11: il2ra_site2_2erj_sap_30_mot_64bd02d26d05ce9f1a62b616cea0b888_0001_af2_000000029_0001_36_49_H_._HHH_b2_07503_af2_0001_0000300057_0000001_0_0001 (protein)
chain: SSSSSDWEVYVRVWELLHEAAKIEDEEEREQVLEEARRLAEERNSPLLEMFVERLAEELSSSSSS
B12: il2ra_site1_3nfp_sap_21_mot_HHH_b2_04910_af2_000000236_0001_1_18_H_._4946fae19574d7b03d9e348227509a78_0001_0001_0000300023_0000001_0_0001_af2pred_0001_af2pred (protein)
chain: SSSDEREVHKLLKEALEAALKGNPEEARELLEEAERLAKELNNPRAEHTVEKALKSFERARSSSS
B13: il2ra_site2_3nfp_normal_mot_HHH_b2_06150_000000217_0001_39_53_H_._HHH_b2_02070_af2_0001_0000300033_0000001_0 (protein)
chain: SSSSSEEEVEELLRQAEKLLEKGDPEEARRVVARAALLAYELRNAELFYKIAELLLKIVGSSSSS
B14: il2ra_site1_1z92_sap_12_mot_c9a8daa1dfea21d1414aecde54be4f54_0001_1_af2_000000024_0001_32_46_H_._baf84f35d54589ae25ccad3ce5c0571a_0001_af2_0001_0000100002_00000 … (protein)
chain: SSSSTQKESLVRIAVRILVRMAQLSEEQEEELERLAEELIERGYDPLEILKILDEEALRLSSSSS
B15: il2ra_site1_3nfp_normal_mot_0eddeacbb14b769e73e254714f31e2f9_0001_af2_000000052_0001_37_51_H_._HHH_b2_04546_0001_0000800019_0000001_0 (protein)
chain: SSSSSDEEIREEVERLLEEAEKIEDTREASKVLEEAYRLARELGDFELADLIYEVARREISSSSS
B16: il2ra_site2_2erj_normal_mot_HHH_b1_02466_000000018_0001_22_38_H_._HHH_b2_04156_0002_0000700012_0000001_0 (protein)
chain: SSSSSSDLEELSEEIKEEFEEARSEEERHRLAWELLELVHKFGTRELIRLAKELIEILSSSSSSS
B17: il2ra_site2_2erj_sap_16_mot_HHH_b1_05944_000000221_0001_38_56_H_._HHH_b1_01483_af2_0001_0000700001_0000001_0_0001 (protein)
chain: SSSHELMEEAYKVANEASRLVAKNPEEAKEFVEEWIREAREKNDEFLEWLLRQVLELIKELSNSS
B18: il2ra_site1_2b5i_sap_10_mot_9e5b67f2fe50fe8120620fffc4d177d6_0001_af2_000000122_0001_1_12_H_._HHH_b2_06876_0001_0000100002_0000001_0_0001_af2pred_dldesign_0_af2 … (protein)
chain: SSSSSALREEIERLLEEARRLAAAGRPEEALRLLSRALYLAHALGDEEAIARIKALAEELESSSS

The binders below were run against il2ra, P01589 (assay: yeast display titration).

Apparent Kd, inactive:
B1 no binding seen, B2 no binding seen, B3 no binding seen, B4 no binding seen, B5 no binding seen, B6 no binding seen, B7 no binding seen, B8 no binding seen, B9 no binding seen, B10 no binding seen, B11 no binding seen, B12 no binding seen, B13 no binding seen, B14 no binding seen, B15 no binding seen, B16 no binding seen, B17 no binding seen, B18 no binding seen
